According to publication PMC5339724:
No constants are given. Whether binding was seen depends on the method and setting. In cells and extracts the contact can be indirect. Some binding calls cover weakened binding; strength is not graded here. For part of these data: Sequences can lack the tags named with a protein.

Sequences of proteins named here, by UniProt entry; tags and fusion partners are left off. A change or cut given only in a name is not applied to a line headed by its entry.
UniProt Q9Y5X1: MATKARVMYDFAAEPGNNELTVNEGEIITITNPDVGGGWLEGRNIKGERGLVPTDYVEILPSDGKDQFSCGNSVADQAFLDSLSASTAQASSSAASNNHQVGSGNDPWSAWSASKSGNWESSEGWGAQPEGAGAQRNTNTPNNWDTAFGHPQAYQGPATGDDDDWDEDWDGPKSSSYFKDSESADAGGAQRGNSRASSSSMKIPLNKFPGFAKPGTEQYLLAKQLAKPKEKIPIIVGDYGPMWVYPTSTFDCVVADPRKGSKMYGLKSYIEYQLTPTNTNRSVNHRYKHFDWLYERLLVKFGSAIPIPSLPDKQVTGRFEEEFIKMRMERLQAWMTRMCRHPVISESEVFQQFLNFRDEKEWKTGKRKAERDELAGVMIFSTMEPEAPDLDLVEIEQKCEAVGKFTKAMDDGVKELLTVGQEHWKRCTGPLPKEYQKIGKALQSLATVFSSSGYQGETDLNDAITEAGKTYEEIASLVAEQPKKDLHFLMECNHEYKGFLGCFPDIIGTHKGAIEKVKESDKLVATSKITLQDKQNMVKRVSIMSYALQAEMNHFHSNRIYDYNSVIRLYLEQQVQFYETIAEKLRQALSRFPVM

Assays:
[1] = molecular target: T1, FLAG-tagged podocin (UniProt Q9NP85); assay: co-IP; HEK293T cells co-transfected with FLAG-podocin and GFP-SNX9 constructs; lysate in 50 mM Tris pH 7.5, 150 mM NaCl, 1.0% Triton X100; anti-FLAG-M2 agarose overnight at 4 °C; blot with anti-GFP and anti-FLAG
T1 sequence: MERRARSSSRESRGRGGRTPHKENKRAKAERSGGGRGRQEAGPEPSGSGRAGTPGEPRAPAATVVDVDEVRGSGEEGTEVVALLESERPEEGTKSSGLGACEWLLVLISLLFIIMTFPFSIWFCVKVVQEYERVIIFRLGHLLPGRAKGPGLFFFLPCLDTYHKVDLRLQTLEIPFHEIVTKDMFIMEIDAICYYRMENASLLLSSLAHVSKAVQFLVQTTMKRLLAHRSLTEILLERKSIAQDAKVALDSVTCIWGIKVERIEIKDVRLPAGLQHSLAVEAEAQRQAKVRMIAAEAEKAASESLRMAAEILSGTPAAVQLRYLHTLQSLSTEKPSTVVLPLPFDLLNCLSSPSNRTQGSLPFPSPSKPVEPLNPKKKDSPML

[2] = molecular target: T2, endogenous podocin of ADR-treated cultured human podocytes (human (endogenous in cultured human podocytes)) (UniProt Q9NP85); assay: co-IP; endogenous proteins from lysates of cultured human podocytes treated with 0.2 μg/ml ADR for 6 h, then 48 h ADR-free; polyclonal anti-podocin, anti-SNX9 and anti-GFP (negative control) antibodies
T2 sequence: T1 sequence

Substance	binding [1]	binding [2]
GFP-SNX9-BAR (from UniProt Q9Y5X1 392-595) (domain or fragment)	binds	
endogenous SNX9 of ADR-treated cultured human podocytes (from UniProt Q9Y5X1 1-595)		binds
GFP-SNX9 (from UniProt Q9Y5X1 1-595)	binds	
